These are yes or no findings as the source states them, for the method shown. Binding seen in cells or lysates may run through a third protein. Some results given as binding are weak or reduced against the parent protein; the word gives no strength.
Molecular target: T1, CIDEC short isoform (CIDEC-S) (human), Q96AQ7
T1 chain: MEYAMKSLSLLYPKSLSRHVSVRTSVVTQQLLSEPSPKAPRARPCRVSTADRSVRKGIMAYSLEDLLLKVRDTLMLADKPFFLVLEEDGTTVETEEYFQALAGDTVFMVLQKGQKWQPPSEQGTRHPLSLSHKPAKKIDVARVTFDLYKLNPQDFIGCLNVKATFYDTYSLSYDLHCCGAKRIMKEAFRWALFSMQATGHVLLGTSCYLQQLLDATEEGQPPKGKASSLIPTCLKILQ
Test: co-IP
Conditions: remark: other sources report otherwise

B1: CIDEC short isoform (CIDEC-S), Q96AQ7-1 1-238 (protein)
chain: T1 chain
In the case of B1, the binding is reported as “binds”.

Reference: article doi:10.1101/2025.07.28.25332029
